Patent US9266830B2, “Pesticidal arylpyrrolidines” (Bayer Intellectual Property GmbH, priority 2007, dated 2016)
Some results were stated once for a whole list of compounds, not compound by compound.

Assays:
[1] = system: Ctenocephalides felis; experiment: Ctenocephalides felis test (CTECFE), blood feeding; format: in vivo; conditions: application rate 100 ppm in cattle blood, adult fleas, after 2 days
Description: (§1) Solvent: dimethyl sulfoxide
To produce a suitable preparation of active compound, 10 mg of active compound are dissolved in 0.5 ml solvent, and the concentrate is diluted with cattle blood to the desired concentration. Approximately 10 to 15 adult unfed (Ctenocepahlides felis) are placed in flea chambers. The blood chamber, are sealed with parafilm on the bottom are filled with cattle blood supplied with compound solution and placed on top of the flea chamber, so that the fleas are able to suck the blood. The blood chamber is heated to 37° C. whereas the flea chamber is kept at room temperature. After 2 days mortality in % is determined 100% means that all the fleas have been killed; 0% means that none of the fleas have been killed.

[2] = system: Lucilia cuprina larvae; experiment: Lucilia cuprina test (larvae in minced horse meat); format: in vivo; conditions: application rate 100 ppm, after 2 days
Description: as §1
To produce a suitable preparation of active compound, 10 mg of active compound are dissolved in 0.5 ml solvent, and the concentrate is diluted with water to the desired concentration. Approximately 20-30 (Lucilia cuprina larvae) are transferred into a test tube containing 1 cm^3 of minced horse meat and 0.5 ml aqueous dilution of test compound. After 2 days mortality in % is determined 100% means that all the larvae have been killed; 0% means that none of the larvae have been killed.

Compound | activity (mortality in %) [1] [%] | activity (mortality in %) [2] [%]
CC(C)CC(=O)NCc1ccc(N2CCC(c3cc(Cl)cc(Cl)c3)(C(F)(F)F)C2)cc1Cl (centres unmarked) [1-7] | 100 | 
O=C(NCc1ccc(N2CCC(c3cc(Cl)cc(Cl)c3)(C(F)(F)F)C2)cc1Cl)C(F)F (centres unmarked) [1-21] | 90 | 100
O=C(NCc1ccc(N2CCC(c3cc(Cl)cc(Cl)c3)(C(F)(F)F)C2)cc1Cl)C1CC1(Cl)Cl (centres unmarked) [1-24] |  | 100
N#CCC(=O)NCc1ccc(N2CCC(c3cc(Cl)cc(Cl)c3)(C(F)(F)F)C2)cc1Cl (centres unmarked) [1-39] |  | 100
COCC(=O)NCc1ccc(N2CCC(c3cc(Cl)cc(Cl)c3)(C(F)(F)F)C2)cc1Cl (centres unmarked) [1-40] | 100 | 100
CCNC(=O)NCc1ccc(N2CCC(c3cc(Cl)cc(Cl)c3)(C(F)(F)F)C2)cc1Cl (centres unmarked) [1-77] | 100 | 100
CCCNC(=O)NCc1ccc(N2CCC(c3cc(Cl)cc(Cl)c3)(C(F)(F)F)C2)cc1Cl (centres unmarked) [1-79] | 90 | 
C=CCNC(=O)NCc1ccc(N2CCC(c3cc(Cl)cc(Cl)c3)(C(F)(F)F)C2)cc1Cl (centres unmarked) [1-87] | 90 | 
CCNC(=O)N(C)Cc1ccc(N2CCC(c3cc(Cl)cc(Cl)c3)(C(F)(F)F)C2)cc1Cl (centres unmarked) [1-113] | 90 | 100
NCc1ccc(N2CCC(c3cc(Cl)cc(Cl)c3)(C(F)(F)F)C2)cc1C(F)(F)F (centres unmarked) [1-141] | 80 | 
CC=CC(=O)NCc1ccc(N2CCC(c3cc(Cl)cc(Cl)c3)(C(F)(F)F)C2)cc1C(F)(F)F (centres unmarked) [1-174] | 90 | 100
CC(=O)OCC(=O)NCc1ccc(N2CCC(c3cc(Cl)cc(Cl)c3)(C(F)(F)F)C2)cc1C(F)(F)F (centres unmarked) [1-188] | 95 | 100
CCCNC(=O)NCc1ccc(N2CCC(c3cc(Cl)cc(Cl)c3)(C(F)(F)F)C2)cc1C(F)(F)F (centres unmarked) [1-222] | 95 | 100
O=C(NCc1ccc(N2CCC(c3cc(Cl)cc(Cl)c3)(C(F)(F)F)C2)cc1C(F)(F)F)NC1CCC1 (centres unmarked) [1-227] | 100 | 100
C=CCNC(=O)NCc1ccc(N2CCC(c3cc(Cl)cc(Cl)c3)(C(F)(F)F)C2)cc1C(F)(F)F (centres unmarked) [1-230] | 90 | 100
O=C(NCc1ccc(N2CCC(c3cc(Cl)cc(Cl)c3)(C(F)(F)F)C2)cc1C(F)(F)F)NCC1CC1 (centres unmarked) [1-232] | 90 | 100
COCCNC(=O)NCc1ccc(N2CCC(c3cc(Cl)cc(Cl)c3)(C(F)(F)F)C2)cc1C(F)(F)F (centres unmarked) [1-243] | 100 | 
CSCCNC(=O)NCc1ccc(N2CCC(c3cc(Cl)cc(Cl)c3)(C(F)(F)F)C2)cc1C(F)(F)F (centres unmarked) [1-244] | 100 | 
O=C(NCc1ccccn1)NCc1ccc(N2CCC(c3cc(Cl)cc(Cl)c3)(C(F)(F)F)C2)cc1C(F)(F)F (centres unmarked) [1-254] | 95 | 
O=C(NCc1ccc(N2CCC(c3cc(Cl)cc(Cl)c3)(C(F)(F)F)C2)cc1C(F)(F)F)N1CCOCC1 (centres unmarked) [1-257] | 100 | 
NCc1ccc(N2CCC(c3cc(C(F)(F)F)cc(C(F)(F)F)c3)(C(F)(F)F)C2)cc1C(F)(F)F (centres unmarked) [1-295] |  | 100
CC(C)(C)OC(=O)NCc1ccc(N2CCC(c3cc(C(F)(F)F)cc(C(F)(F)F)c3)(C(F)(F)F)C2)cc1C(F)(F)F (centres unmarked) [1-300] |  | 100
FC(F)(F)C1(c2cc(Cl)cc(Cl)c2)CCN(c2ccc(CNC(=S)NC3CC3)c(Cl)c2)C1 (centres unmarked) [1-468] |  | 100
O=C(CC(F)(F)F)NCc1sc(N2CCC(c3cc(C(F)(F)F)cc(C(F)(F)F)c3)(C(F)(F)F)C2)nc1C(F)(F)F (centres unmarked) [5-150] |  | 100
CC(C)(C)OC(=O)NC1CCc2cc(N3CCC(c4cc(Cl)c(Cl)c(Cl)c4)(C(F)(F)F)C3)ccc21 (centres unmarked) [6-802] |  | 100
